The values that follow come from publication PMC2806001.

The chains behind the UniProt entries cited, without tags or fusion partners. Residues count along the entry.
UniProt Q9NXA8, residues 37-310: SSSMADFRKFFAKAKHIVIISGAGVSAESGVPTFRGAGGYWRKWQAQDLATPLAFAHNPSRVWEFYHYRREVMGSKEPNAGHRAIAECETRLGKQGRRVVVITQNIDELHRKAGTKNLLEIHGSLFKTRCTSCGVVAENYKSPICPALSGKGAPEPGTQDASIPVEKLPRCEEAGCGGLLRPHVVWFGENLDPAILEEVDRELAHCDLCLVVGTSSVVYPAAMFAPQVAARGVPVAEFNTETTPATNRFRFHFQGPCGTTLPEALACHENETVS

These are yes or no findings as the source states them, for the method shown. In cells and extracts the contact can be indirect. Here binding means that the protein was enriched with, or labelled near, the bait; the list need not be complete. No binding means not detected with the bait.

One assay deals with Sirtuin 5 (Sirt5) (UniProt Q9NXA8). Nature of the assay: affinity purification with mass spectrometry; His-tagged bait (p66CH2CB as a mixture of dimeric and tetrameric state, or the Sirt5 control) saturating Talon resin; 3 mg mitochondrial lysate, 10 mM imidazole, 1 h at room temperature; eluate digested with trypsin and analysed by MudPIT; only the target purified.
Assay [1] deals with T1, p66CH2CB WT (N-terminal domains CH2 and CB of p66Shc, residues 1-150) (UniProt P29353).
T1 sequence: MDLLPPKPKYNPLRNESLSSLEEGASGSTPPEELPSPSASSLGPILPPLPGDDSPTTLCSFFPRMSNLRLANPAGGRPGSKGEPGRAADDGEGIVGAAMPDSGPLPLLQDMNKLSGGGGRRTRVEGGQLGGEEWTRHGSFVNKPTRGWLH
The description is as above.

B1: Peroxiredoxin 1 (Prx1), endogenous in mitochondrial lysate (protein, UniProt Q63716 1-199)
chain: MSSGNAKIGHPAPSFKATAVMPDGQFKDISLSDYKGKYVVFFFYPLDFTFVCPTEIIAFSDRAEEFKKLNCQVIGASVDSHFCHLAWINTPKKQGGLGPMNIPLVSDPKRTIAQDYGVLKADEGISFRGLFIIDDKGILRQITINDLPVGRSVDEILRLVQAFQFTDKHGEVCPAGWKPGSDTIKPDVNKSKEYFSKQK
For the molecule B1, the binding entry with Sirtuin 5 (Sirt5) is recorded as “no binding”.

B2: catalase, endogenous in mitochondrial lysate (protein, UniProt P04762 1-527)
chain: MADSRDPASDQMKQWKEQRAPQKPDVLTTGGGNPIGDKLNIMTAGPRGPLLVQDVVFTDEMAHFDRERIPERVVHAKGAGAFGYFEVTHDITRYSKAKVFEHIGKRTPIAVRFSTVAGESGSADTVRDPRGFAVKFYTEDGNWDLVGNNTPIFFIRDAMLFPSFIHSQKRNPQTHLKDPDMVWDFWSLCPESLHQVTFLFSDRGIPDGHRHMNGYGSHTFKLVNANGEAVYCKFHYKTDQGIKNLPVEEAGRLAQEDPDYGLRDLFNAIASGNYPSWTFYIQVMTFKEAETFPFNPFDLTKVWPHKDYPLIPVGKLVLNRNPANYFAEVEQMAFDPSNMPPGIEPSPDKMLQGRLFAYPDTHRHRLGPNYLQIPVNCPYRARVANYQRDGPMCMHDNQGGAPNYYPNSFSAPEQQGSALEHHSQCSADVKRFNSANEDNVTQVRTFYTKVLNEEERKRLCENIANHLKDAQLFIQRKAVKNFTDVHPDYGARVQALLDQYNSQKPKNAIHTYVQAGSHIAAKGKANL
Consider B2, for which the binding result (in assay [1]; with Sirtuin 5 (Sirt5)) was “no binding” in each case.

B3: Prx3, endogenous in mitochondrial lysate (protein, UniProt Q9Z0V6 63-257)
chain: TPAVTQHAPHFKGTAVVNGEFKELSLDDFKGKYLVLFFYPLDFTFVCPTEIVAFSDKANEFHDVNCEVVAVSVDSHFSHLAWINTPRKNGGLGHMNITLLSDLTKQISRDYGVLLESAGIALRGLFIIDPNGVIKHLSVNDLPVGRSVEEPLRLVKAFQFVETHGEVCPANWTPESPTIKPSPTASKEYFEKVHQ
As to B3, the binding entry in the assay with Sirtuin 5 (Sirt5) is reported as “no binding”.
